Where a chain is given by its changes, count along the chain named. Results are given in words; binding and its absence hold for the method and conditions named. Some binding calls cover weakened binding; strength is not graded here. Where a sequence is shown, tags or fusion partners need not be part of it.
Tests used:
Assay in all cases: tandem affinity purification
[1] = molecular target: T1, TAP-tagged Ioc4 with the insertion motif deleted, in yeast (S. cerevisiae) (UniProt Q04213)
T1 sequence: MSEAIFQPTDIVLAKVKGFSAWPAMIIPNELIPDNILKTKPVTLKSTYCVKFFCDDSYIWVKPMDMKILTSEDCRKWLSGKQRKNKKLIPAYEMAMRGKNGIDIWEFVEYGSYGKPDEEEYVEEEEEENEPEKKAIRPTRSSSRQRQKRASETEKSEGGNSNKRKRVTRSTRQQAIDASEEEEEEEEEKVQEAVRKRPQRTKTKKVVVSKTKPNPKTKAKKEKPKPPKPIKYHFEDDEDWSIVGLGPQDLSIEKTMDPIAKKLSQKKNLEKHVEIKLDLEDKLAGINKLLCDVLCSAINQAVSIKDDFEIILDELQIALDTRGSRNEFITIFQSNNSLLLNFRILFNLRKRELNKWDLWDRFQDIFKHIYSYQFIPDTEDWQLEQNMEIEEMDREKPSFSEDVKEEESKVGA

[2] = molecular target: T2, TAP-tagged Ioc4 with its PWWP domain deleted, in yeast (S. cerevisiae) (UniProt Q04213)
T2 sequence: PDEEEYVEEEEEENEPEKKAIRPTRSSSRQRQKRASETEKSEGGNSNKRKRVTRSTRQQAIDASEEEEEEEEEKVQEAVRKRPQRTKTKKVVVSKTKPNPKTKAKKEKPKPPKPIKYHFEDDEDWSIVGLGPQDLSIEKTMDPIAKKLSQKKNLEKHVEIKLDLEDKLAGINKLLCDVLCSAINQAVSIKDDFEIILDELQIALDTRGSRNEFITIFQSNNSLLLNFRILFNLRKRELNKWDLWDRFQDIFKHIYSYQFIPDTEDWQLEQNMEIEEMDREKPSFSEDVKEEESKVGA

[3] = molecular target: T3, TAP-tagged wildtype Ioc4 in yeast (S. cerevisiae) (UniProt Q04213)
T3 sequence: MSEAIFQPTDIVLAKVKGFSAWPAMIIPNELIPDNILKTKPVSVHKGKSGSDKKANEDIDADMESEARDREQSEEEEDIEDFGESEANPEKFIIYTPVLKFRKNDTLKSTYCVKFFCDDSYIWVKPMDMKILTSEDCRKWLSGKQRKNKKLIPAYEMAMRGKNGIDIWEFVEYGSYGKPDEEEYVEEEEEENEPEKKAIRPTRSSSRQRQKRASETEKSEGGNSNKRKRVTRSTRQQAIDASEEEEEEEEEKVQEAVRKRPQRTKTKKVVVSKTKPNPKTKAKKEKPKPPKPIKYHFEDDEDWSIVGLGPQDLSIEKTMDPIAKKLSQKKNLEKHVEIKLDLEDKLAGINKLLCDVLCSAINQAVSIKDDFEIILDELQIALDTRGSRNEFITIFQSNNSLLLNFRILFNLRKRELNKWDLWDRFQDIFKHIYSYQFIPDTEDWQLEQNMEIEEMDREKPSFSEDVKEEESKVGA

[4] = molecular target: T4, TAP-tagged Ioc4 DNA-binding mutant [change] [change], in yeast (S. cerevisiae) (UniProt Q04213)
T4 sequence: T3 sequence with K149E, K150E

[5] = molecular target: T5, TAP-tagged Ioc4 aromatic cage mutant [change], in yeast (S. cerevisiae) (UniProt Q04213)
T5 sequence: T3 sequence with W22A

Measured: binding

B1: Ioc2 (protein, UniProt Q12072 1-812)
chain: MRTKRTRGTRNVGASMPAGAANADSEDWKEYVSEDIIAQLNKHQLPYSEILDEKIADLANHWHFQYVMAWLSNVCESYTTTTFNTDQYGGSSTKCLWKNIKFDEGVFVTDVFSKIDGKDSNYYNDEVDVDEGSQNLYDRIRLQLLHQLAGNKSGQLKDWNVIVNHHLQNSSAYSDLVTDLPFLELEIARQFDIIYSIIKLIEMKNMIFKNYLANNLHLFTFSEVILDDDNSGGEEMKSLFALPNVGVLVKKTIHRVKEGSSSQVSQTLNIPIKLQNCTIKESDPDIPDSVELIHLEYSHDIDAYLQSITIDYDVITTNWGSMLEYWSENKSSKAIDEFITNLIPVYAEHRLYSAKLLANREKERAIAELMTRRKRSSRLVAKEEENKKKDLESEWFEKLDEREQFIRHRNKLVSKEIKKIKDLLWNQLWQLYDQDYRDEKLTRRNELKDRSGSGTPFFETSLGREEDNPLNEIDIGVLDHGPNFQSSIIPVEPPIPGTVGPLQTGDVPELPSDFCITKEELDELANYGIFTPQQEPDNQDSVFQCPGEPELAPMIITEDTETDLFNNRPLICCDHCYRWQHWECQPPKIIELISSTTKSPQHTLSQRDFGVIIMGNSHGNRRSSRRPQSTLEPSTKSSRPTDKRKPLSECSTFICAWCIRDLELELRNIFVPELKIIRAKQRKQQEDRERRKKMKEEKKRLEELAKKRELTESVSPPVFNNAFANMSSSTTPSIAAYEKTNPAINPAPNVNAAHPIITYSQQTGSKTVPQAPQAPQTSQASIQPQQQQQQQQQQQPLHPKEQNFHFQFPPTN
binds: all assays above
